The values below come from publication PMC7694386.

By UniProt entry, the sequences of proteins in these tests, tags left out.
UniProt P26599: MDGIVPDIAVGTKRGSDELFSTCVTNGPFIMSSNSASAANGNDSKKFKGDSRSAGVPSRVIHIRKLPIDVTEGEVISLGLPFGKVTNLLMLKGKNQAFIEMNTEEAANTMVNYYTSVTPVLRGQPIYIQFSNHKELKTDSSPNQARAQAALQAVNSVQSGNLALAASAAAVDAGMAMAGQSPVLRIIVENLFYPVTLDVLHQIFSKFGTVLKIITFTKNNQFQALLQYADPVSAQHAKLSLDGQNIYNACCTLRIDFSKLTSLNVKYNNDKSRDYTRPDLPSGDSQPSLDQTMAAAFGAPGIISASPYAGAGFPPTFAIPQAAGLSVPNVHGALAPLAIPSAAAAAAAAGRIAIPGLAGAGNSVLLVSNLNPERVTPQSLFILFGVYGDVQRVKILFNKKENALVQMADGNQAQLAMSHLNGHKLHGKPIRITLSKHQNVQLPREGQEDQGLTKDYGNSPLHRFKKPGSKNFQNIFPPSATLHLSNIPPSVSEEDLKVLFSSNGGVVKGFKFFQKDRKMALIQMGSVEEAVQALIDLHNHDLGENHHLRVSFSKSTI
UniProt P53618: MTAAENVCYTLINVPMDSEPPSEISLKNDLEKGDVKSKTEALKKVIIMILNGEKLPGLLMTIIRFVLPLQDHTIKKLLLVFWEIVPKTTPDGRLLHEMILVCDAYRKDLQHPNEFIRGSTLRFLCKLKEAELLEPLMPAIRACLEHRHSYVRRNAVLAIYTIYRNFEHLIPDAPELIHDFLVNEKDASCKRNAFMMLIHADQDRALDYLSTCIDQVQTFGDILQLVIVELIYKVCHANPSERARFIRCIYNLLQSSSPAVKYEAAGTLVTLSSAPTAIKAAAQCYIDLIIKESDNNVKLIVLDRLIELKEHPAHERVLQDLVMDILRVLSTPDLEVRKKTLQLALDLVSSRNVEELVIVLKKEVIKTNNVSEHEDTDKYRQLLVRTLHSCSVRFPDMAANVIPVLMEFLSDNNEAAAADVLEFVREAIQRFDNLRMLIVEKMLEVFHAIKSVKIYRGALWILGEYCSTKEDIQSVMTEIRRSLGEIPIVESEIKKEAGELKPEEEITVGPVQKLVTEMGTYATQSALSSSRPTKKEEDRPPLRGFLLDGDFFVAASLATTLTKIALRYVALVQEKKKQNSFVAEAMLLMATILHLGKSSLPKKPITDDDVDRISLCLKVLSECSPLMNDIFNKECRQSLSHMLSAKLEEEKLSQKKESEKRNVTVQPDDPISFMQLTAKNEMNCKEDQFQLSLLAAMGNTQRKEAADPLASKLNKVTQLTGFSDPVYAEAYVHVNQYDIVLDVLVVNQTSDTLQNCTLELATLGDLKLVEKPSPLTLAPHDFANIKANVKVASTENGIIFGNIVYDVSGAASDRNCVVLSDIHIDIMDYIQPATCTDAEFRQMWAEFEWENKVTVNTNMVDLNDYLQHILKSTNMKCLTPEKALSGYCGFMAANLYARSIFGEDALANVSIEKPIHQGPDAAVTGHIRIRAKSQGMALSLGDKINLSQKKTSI
UniProt Q9UJX4: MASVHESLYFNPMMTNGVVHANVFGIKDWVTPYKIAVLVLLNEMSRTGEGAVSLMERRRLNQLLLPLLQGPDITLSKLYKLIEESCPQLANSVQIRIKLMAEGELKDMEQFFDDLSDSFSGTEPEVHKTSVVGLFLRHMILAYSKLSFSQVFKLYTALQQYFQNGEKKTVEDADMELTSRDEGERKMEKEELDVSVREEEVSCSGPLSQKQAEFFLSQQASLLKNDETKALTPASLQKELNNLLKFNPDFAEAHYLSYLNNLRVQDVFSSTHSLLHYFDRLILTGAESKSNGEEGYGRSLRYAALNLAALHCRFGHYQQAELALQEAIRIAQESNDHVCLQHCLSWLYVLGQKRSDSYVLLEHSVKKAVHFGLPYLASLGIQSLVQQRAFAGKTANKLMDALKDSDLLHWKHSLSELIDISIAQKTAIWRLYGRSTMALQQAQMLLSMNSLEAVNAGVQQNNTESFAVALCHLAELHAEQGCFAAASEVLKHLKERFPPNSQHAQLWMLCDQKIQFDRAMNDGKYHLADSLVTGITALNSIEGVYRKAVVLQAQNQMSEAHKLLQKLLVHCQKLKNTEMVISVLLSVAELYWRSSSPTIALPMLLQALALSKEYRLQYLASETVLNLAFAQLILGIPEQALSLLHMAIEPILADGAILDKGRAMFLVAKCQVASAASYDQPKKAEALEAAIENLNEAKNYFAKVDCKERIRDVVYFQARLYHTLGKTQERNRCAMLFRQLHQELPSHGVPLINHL
UniProt P08758: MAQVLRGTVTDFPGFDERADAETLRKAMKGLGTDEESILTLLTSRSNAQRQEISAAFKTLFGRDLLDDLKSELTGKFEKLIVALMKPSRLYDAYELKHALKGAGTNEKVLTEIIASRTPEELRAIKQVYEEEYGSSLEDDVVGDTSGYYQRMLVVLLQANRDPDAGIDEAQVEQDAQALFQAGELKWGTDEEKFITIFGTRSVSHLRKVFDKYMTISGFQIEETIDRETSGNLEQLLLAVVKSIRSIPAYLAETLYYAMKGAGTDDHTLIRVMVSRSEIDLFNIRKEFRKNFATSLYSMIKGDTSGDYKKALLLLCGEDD
UniProt Q96GM5: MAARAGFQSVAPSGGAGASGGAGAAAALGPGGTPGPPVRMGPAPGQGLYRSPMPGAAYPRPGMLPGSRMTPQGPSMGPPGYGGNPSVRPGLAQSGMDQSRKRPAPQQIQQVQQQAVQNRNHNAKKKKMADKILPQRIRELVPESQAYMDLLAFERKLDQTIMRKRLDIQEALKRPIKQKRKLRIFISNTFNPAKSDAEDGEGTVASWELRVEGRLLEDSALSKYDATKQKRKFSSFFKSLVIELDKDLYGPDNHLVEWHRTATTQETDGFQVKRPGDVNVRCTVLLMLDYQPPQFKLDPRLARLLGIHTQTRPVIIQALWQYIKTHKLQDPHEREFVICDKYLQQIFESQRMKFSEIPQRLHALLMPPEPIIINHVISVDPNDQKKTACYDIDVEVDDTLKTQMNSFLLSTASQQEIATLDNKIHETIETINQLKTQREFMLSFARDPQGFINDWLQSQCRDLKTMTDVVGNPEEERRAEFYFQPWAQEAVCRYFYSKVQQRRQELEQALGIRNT
UniProt B5ME19: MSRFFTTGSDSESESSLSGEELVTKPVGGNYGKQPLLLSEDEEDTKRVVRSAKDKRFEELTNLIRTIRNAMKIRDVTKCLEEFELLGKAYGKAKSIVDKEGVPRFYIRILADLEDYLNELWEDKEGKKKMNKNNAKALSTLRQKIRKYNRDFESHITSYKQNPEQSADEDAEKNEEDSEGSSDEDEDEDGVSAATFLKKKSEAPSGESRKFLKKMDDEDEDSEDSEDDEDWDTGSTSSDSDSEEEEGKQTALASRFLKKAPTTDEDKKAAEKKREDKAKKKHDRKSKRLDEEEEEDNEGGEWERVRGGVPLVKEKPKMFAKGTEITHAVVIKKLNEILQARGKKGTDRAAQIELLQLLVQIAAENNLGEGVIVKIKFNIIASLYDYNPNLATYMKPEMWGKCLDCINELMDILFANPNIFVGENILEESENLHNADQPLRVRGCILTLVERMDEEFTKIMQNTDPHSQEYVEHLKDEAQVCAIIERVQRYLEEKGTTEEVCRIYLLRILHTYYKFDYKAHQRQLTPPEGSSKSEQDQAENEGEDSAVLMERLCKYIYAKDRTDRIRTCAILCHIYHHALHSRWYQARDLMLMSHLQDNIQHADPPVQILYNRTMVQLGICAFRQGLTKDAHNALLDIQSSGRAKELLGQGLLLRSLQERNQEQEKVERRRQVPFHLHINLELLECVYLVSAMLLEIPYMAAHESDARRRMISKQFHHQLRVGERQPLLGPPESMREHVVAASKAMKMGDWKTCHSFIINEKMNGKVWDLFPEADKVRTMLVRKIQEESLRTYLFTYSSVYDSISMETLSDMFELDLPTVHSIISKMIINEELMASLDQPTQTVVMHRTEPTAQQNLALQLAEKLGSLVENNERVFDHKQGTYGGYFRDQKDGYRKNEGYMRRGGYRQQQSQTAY
UniProt Q16630: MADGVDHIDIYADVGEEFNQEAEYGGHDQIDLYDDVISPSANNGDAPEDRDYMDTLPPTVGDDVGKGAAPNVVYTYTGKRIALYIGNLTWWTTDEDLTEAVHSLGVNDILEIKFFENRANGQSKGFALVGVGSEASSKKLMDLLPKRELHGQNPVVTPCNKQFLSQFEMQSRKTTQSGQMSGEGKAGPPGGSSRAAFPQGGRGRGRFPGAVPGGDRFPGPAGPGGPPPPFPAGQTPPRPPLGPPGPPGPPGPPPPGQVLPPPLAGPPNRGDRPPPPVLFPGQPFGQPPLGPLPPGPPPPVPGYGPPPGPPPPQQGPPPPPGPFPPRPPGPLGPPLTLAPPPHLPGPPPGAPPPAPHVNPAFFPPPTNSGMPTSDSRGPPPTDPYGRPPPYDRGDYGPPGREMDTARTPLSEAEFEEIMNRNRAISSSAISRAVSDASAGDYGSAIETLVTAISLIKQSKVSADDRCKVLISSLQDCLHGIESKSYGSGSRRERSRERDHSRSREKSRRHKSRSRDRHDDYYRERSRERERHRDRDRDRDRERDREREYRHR
UniProt O43765: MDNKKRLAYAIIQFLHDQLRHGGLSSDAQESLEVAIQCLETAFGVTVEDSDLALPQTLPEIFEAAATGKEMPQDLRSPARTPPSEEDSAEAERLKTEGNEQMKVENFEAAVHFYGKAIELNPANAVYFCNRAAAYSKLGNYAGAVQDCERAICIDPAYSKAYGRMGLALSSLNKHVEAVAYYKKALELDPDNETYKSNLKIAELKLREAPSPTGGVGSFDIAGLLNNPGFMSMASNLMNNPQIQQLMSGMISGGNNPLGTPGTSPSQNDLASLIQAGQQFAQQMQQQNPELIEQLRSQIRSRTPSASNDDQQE
UniProt O43242: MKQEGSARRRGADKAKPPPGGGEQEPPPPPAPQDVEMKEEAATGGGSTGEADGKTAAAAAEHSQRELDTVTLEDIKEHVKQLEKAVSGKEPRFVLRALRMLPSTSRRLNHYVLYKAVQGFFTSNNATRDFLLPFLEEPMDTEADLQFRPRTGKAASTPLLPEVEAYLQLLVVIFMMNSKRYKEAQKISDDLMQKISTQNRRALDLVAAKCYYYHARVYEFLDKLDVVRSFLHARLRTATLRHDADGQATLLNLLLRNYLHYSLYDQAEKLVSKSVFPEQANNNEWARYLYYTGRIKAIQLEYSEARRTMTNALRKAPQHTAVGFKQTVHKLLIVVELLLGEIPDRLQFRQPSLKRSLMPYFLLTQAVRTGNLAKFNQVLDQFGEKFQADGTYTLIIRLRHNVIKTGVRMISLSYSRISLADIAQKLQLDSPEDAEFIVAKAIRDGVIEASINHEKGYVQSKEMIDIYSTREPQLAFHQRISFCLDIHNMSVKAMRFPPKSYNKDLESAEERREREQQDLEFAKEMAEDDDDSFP
UniProt Q13409: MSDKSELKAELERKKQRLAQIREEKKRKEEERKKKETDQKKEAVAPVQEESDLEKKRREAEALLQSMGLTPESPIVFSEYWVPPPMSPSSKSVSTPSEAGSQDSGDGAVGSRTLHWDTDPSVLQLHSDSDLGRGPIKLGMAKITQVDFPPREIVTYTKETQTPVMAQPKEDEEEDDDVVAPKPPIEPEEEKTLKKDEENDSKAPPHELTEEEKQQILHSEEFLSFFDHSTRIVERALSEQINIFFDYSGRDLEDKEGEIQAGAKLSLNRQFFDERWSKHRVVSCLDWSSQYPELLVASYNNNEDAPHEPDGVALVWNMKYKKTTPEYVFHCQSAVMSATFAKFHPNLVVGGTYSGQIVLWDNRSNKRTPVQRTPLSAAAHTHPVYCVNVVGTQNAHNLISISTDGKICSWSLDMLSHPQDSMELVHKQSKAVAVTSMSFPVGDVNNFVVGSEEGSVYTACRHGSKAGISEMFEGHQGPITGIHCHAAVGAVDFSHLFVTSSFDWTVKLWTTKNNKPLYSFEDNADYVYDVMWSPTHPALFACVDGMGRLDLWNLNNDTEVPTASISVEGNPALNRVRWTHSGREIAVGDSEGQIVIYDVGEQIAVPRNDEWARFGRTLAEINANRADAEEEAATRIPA
UniProt P68371: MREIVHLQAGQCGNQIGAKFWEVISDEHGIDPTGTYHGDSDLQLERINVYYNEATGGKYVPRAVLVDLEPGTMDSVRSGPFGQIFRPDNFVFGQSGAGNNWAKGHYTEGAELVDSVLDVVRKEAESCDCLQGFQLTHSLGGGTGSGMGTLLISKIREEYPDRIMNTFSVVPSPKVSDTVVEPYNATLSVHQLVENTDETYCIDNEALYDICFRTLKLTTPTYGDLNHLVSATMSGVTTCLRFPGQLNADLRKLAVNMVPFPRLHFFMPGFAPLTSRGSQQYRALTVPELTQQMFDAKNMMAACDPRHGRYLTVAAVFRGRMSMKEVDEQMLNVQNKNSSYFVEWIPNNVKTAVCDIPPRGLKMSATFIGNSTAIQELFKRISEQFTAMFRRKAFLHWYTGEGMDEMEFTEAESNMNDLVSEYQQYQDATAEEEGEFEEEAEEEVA

These are yes or no findings as the source states them, for the method shown. In cells and extracts the contact can be indirect. A yes stands for co-enrichment or nearness to the bait. Other partners may have been found.

The target of the assay is BAG3 (BCL-2-associated athanogene 3) (human (endogenous in HEK293T)) (UniProt O95817). In words: affinity purification with mass spectrometry; endogenous BAG3 immunoprecipitated with anti-BAG3 antibody and Protein A/G magnetic beads from HEK293T lysate; cells treated with DMSO (basal) or 10 µM MG132 for 6 h; IgG IP (MG132_IgG) as control; label-free quantification, three biological replicates.

Regarding “CLTC protein, the heavy chain of clathrin (from UniProt Q00610 1-1675)”, the binding entry is “binds”.
As for PTBP1 (from UniProt P26599 1-557), the binding entry is on record as “binds”.
The result for DCTN2 (from UniProt Q13561 1-401) reads “binds”.
With PSMC4 (from UniProt P43686 1-418), the binding result is given as “binds”.
The result for “Replication protein A 70 kDa DNA-binding subunit (from UniProt P27694 1-616)” reads “binds”.
With PSMB4 (from UniProt P28070) the entry was “binds”; with AP2B1 (from UniProt P63010 1-937), “binds”; with ATXN2 (from UniProt Q99700 1-1313), “binds”.
With HSPA6 (from UniProt P17066 1-643) the entry was “binds”.
Regarding “26S protease regulatory subunit 8 (from UniProt P62195 1-406)”, the binding result is recorded as “binds”.
For the substance UMPS (from UniProt P11172 1-480), the binding entry is reported as “binds”.
With LSM14A (from UniProt Q8ND56 1-463) the entry was “binds”; with “14-3-3 protein beta/alpha (from UniProt P31946 1-246)”, “binds”.
The result for “E1 enzyme UBA1 (from UniProt P22314 1-1058)” reads “binds”.
For “autophagy receptor p62 (SQSTM1) (from UniProt Q13501 1-440)”, the binding entry is “binds”.
With “YTH domain-containing family protein 3 (from UniProt Q7Z739 1-585)” the entry was “binds”; with CENPE (from UniProt Q02224 1-2701), “binds”; with “Actin-related protein 10 (from UniProt Q9NZ32 1-417)”, “binds”.
With COPB1 (from UniProt P53618 1-953) the entry was “binds”; with AMOTL2 (from UniProt Q9Y2J4 1-779), “binds”.
Consider EIF3E (from UniProt P60228 1-445), for which the binding entry is on record as “binds”.
As to “nuclear factor NFκB subunit p65 (RELA) (from UniProt Q04206 1-551)”, the binding entry is “binds”.
The result for “APC/C component ANAPC5 (from UniProt Q9UJX4 1-755)” reads “binds”; that for “Serine/threonine-protein kinase WNK1 (from UniProt Q9H4A3 1-2382)”, “binds”; that for “Histone-binding protein RBBP4 (from UniProt Q09028 1-425)”, “binds”.
In the case of “Kinetochore protein Nuf2 (from UniProt Q9BZD4 1-464)”, the binding result is on record as “binds”.
Turning to DYNC1LI2 (from UniProt O43237 1-492), the binding result was “binds”.
For the substance PABPC1 (from UniProt P11940 1-636), the binding entry is given as “binds”.
The result for PSMD4 (from UniProt P55036 1-377) reads “binds”; that for ANXA5 (from UniProt P08758 1-320), “binds”; that for “Ras GTPase-activating protein-binding protein 1 (from UniProt Q13283 1-466)”, “binds”.
Take CORO1C (from UniProt Q9ULV4 1-474): the binding result is on record as “binds”.
With FXR1 (from UniProt P51114 1-621) the entry was “binds”; with HNRNPH1 (from UniProt P31943 1-449), “binds”; with “SWI/SNF-related matrix-associated actin-dependent regulator of chromatin subfamily B member 1 (from UniProt Q12824 1-385)”, “binds”.
The result for “Eukaryotic translation initiation factor 3 subunit L (from UniProt Q9Y262 1-564)” reads “binds”; that for DCTN5 (from UniProt Q9BTE1 1-182), “binds”; that for EIF4G3 (from UniProt O43432 1-1585), “binds”.
The result for SMARCD1 (from UniProt Q96GM5 1-515) reads “binds”; that for “Protein PRRC2C (from UniProt Q9Y520 1-2896)”, “binds”; that for “Transcriptional repressor p66-beta (from UniProt Q8WXI9 1-593)”, “binds”.
As for HDAC2 (from UniProt Q92769 1-488), the binding entry is “binds”.
As for PPAT (from UniProt Q06203 12-517), the binding result is “binds”.
The result for EIF3CL (from UniProt B5ME19 1-914) reads “binds”; that for CYFIP1 (from UniProt Q7L576 1-1253), “binds”; that for CEP250 (from UniProt Q9BV73 1-2442), “binds”.
Regarding “Alpha-actinin-1 (from UniProt P12814 1-892)”, the binding entry was “binds”.
Consider “Guanine nucleotide-binding protein G(k) subunit alpha (from UniProt P08754 1-354)”, for which the binding result is given as “binds”.
Consider FUS (from UniProt P35637 1-526), for which the binding result is “binds”.
Take “tyrosine-protein kinase YES1 (Yamaguchi Sarcoma viral oncogene homologue 1) (from UniProt P07947 1-543)”: the binding result is “binds”.
With “Glutamine synthetase (from UniProt P15104 1-373)” the entry was “binds”.
For the substance PLK1 (from UniProt P53350 1-603), the binding entry was “binds”.
For the substance “Kelch-like ECH-associated protein 1 (from UniProt Q14145 1-624)”, the binding entry was “binds”.
Consider “Histone deacetylase 1 (from UniProt Q13547 1-482)”, for which the binding entry is on record as “binds”.
For HSPA4 (from UniProt P34932 1-840), the binding result was “binds”.
The result for CPSF6 (from UniProt Q16630 1-551) reads “binds”; that for PABPC3 (from UniProt Q9H361 1-631), “binds”.
With “N-acetylglucosamine-1-phosphotransferase subunits alpha/beta (from UniProt Q3T906 1-1256)” the entry was “binds”.
The result for LARP4B (from UniProt Q92615 1-738) reads “binds”; that for SGTA (from UniProt O43765 1-313), “binds”; that for CNOT3 (from UniProt O75175 1-753), “binds”.
Regarding “ubiquilin UBQLN2 (from UniProt Q9UHD9 1-624)”, the binding result is reported as “binds”.
With AP2A2 (from UniProt O94973 1-939) the entry was “binds”; with GMPS (from UniProt P49915 1-693), “binds”; with DCTN4 (from UniProt Q9UJW0 1-460), “binds”.
The result for CTBP2 (from UniProt P56545 1-445) reads “binds”.
The result for Exportin-1 (from UniProt O14980 1-1071) reads “binds”; that for “RNA-binding factor IGF2BP2 (from UniProt Q9Y6M1 1-599)”, “binds”; that for “chaperonin HSPD1 (from UniProt P10809 27-573)”, “binds”.
Consider “Obscurin-like protein 1 (from UniProt O75147 1-1896)”, for which the binding result is given as “binds”.
Take “26S proteasome non-ATPase regulatory subunit 3 (from UniProt O43242 1-534)”: the binding entry is recorded as “binds”.
The result for “Eukaryotic translation initiation factor 3 subunit C (from UniProt Q99613 1-913)” reads “binds”; that for PIK3R2 (from UniProt O00459 1-728), “binds”.
The result for PSMC2 (from UniProt P35998 1-433) reads “binds”; that for TNRC6A (from UniProt Q8NDV7 1-1962), “binds”.
The result for “signal transducer and transcription activator STAT1 (from UniProt P42224 1-750)” reads “binds”; that for AP2M1 (from UniProt Q96CW1 1-435), “binds”.
As for “Protein FAM91A1 (from UniProt Q658Y4 1-838)”, the binding result was “binds”.
With “A-kinase anchor protein 12 (from UniProt Q02952 1-1782)” the entry was “binds”; with ATIC (from UniProt P31939 1-592), “binds”; with CCNB1 (from UniProt P14635 1-433), “binds”.
Take “dynein intermediate chain DYNC1I2 (from UniProt Q13409 1-638)”: the binding result is reported as “binds”.
On to MAP4 (from UniProt P27816 1-1152), for which the binding entry is on record as “binds”.
With “T-complex protein 1 subunit epsilon (from UniProt P48643 1-541)” the entry was “binds”; with STAU1 (from UniProt O95793 1-577), “binds”; with “nucleotide-exchange factor HSPH1 (from UniProt Q92598 1-858)”, “binds”.
With EIF3D (from UniProt O15371 1-548) the entry was “binds”.
As to ACTL6A (from UniProt O96019 1-429), the binding entry is given as “binds”.
With TUBB4B (from UniProt P68371 1-445), the binding result is “binds”.
